The whole screen tested about 300,000 compounds, of which about 5,200 (1.7%) were called active. Inconclusive results, whose numbers are uncertain, are shown with a selection of clear calls.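 Rule for the calls: active = mean replicate activation of at least 50% with a set share of replicates each reaching 50%; inconclusive = only one of those two conditions met; inactive = mean below 50% and too few replicates reaching it.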
assay: HSF-1 activators, primary screen, NIH3T3-HGL cells, MG132 stress, luminescence, single point (AID 504408); conditions: NIH3T3-HGL HSF-1 luciferase reporter, MG132, 8 h; at 9 µM; hits give high values; 100% = twice DMSO control signal;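 note: 0% = median of the neutral control wells and 100% = twice that signal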

activation, active:
CCn1c(-c2ccsc2)nc2c1c(=O)[nH]c(=O)n2Cc1ccccc1 55.7%
Cc1nc2c(-c3ccc(F)cc3)cnn2c2c1CCC2 51.8%
CC(C)(C)NC(=O)C(c1ccncc1)N(Cc1ccc(F)cc1)C(=O)c1ccc(-c2ccccc2)[nH]1 (configuration not stated) 86.8%
ClC(Cl)c1nnc(-c2ccccc2)c(-c2c[nH]c3ccccc23)n1 56.9%
S=C(N/N=C/c1ccco1)NC1CC2CCC1C2 (configuration not stated) 57.9%

activation, inconclusive:
O=C(O)c1ccc(N(Cc2ccccc2)S(=O)(=O)c2ccccc2)cc1 52.8%
O=C(NCc1cccs1)c1ccc(S(=O)(=O)N2CCCCC2)cc1 51.3%
COCCCn1c(Cc2csc(Nc3ccc(F)cc3)n2)nnc1SCC(N)=O 95.2%
CC(C)(C)c1ccc(SCCc2ccccn2)cc1 54.5%
CC(=O)Cc1cc(O)c2ccccc2c1OC(=O)c1ccc(Br)cc1 50%
COC(=O)Cn1c(=O)c2c(nc(Br)n2Cc2ccccc2Cl)n(C)c1=O 59.2%
C=C1CCC[C@]2(C)C[C@H]3OC(=O)C(CN4CCCCC4CO)[C@H]3CC12 (some centres not stated) 50%
Nc1nc(Nc2ccccc2F)nc(NCc2ccco2)c1[N+](=O)[O-] 51.7%
Cc1ccc(C(=O)/C=C/NCc2ccc(F)cc2)cc1 53.4%
O=C(NC1CCCCC1)N(Cc1ccc(F)cc1)Cc1nc2ccccc2c(=O)[nH]1 52.2%
CCCCCOC(=O)C1=C(C)NC(=O)NC1c1ccc(N(C)C)cc1 (configuration not stated) 50.8%
O=C(Nc1ccc2sc3ccccc3c(=O)c2c1)c1ccccc1Cl 54.3%
COc1ccc(C2C=C(C)Nc3nc4ccccc4n32)cc1 (configuration not stated) 51.3%
O=C1c2ccccc2C(=O)N1CC(O)COc1ccc(Br)cc1 (configuration not stated) 50.9%
Cc1cccc(CC(C)NC(=O)c2oc3c(F)cccc3c2C)n1 (configuration not stated) 51.3%
Cc1ccc(CN=c2c([N+](=O)[O-])nn(-c3ccc4c(c3)OCCO4)n2O)cc1 51.2%
O=C(CCS(=O)(=O)c1cccs1)NC1CCCCCC1 50.6%
Cc1ccc(-c2cc(C(=O)N3CCc4ccccc4C3)no2)cc1 55.3%
Cc1cc(NC(c2ccc(Cl)cc2)c2ccc3cccnc3c2O)no1 (configuration not stated) 71.5%
COC(=O)C1CCN(C(=O)COC(=O)c2ccc(OC)c(S(=O)(=O)N3CCCc4ccccc43)c2)CC1 52.7%
COc1ccc(OCCCC(=O)NCCc2ccc(OC)c(OC)c2)cc1 50.8%
O=C(Nc1ccc2ncccc2c1)c1cccc(Br)c1 51.3%
CCC/C=N/Nc1nc2ccccc2s1 50.5%
Clc1ccc2oc(-c3cccnc3NCc3ccccc3)nc2c1 50.2%
O=C(/C=C/C=C/c1ccccc1)c1ccco1 53.3%
Oc1ccc(N=Nc2ccc3ccccc3c2)cc1 53%
O=C(NCc1cc(C(F)(F)F)cc(C(F)(F)F)c1)C1CC(c2cccc([N+](=O)[O-])c2)=NO1 (configuration not stated) 55.2%
CCOC(=O)c1c(C)[nH]c(C(=O)CSc2nccc(C)n2)c1C 50%
COC(=O)c1ccc(COc2ccc(C)cc2[N+](=O)[O-])o1 50.9%
CCOc1ccc(CNc2ccc(N3CCN(Cc4ccccc4)CC3)cc2)cc1 52.3%
O=Cc1c(Sc2ccccc2)nc2ccccn2c1=O 53.6%
O=C(Cc1cccs1)NNC(=S)NC(=O)c1ccccc1 90.3%

Reprinted from the results shown for reference:
activation, inconclusive:
O=C1c2ccccc2C(=O)N1CC(O)COc1ccc(Br)cc1 (configuration not stated) 50.9%
Cc1cccc(CC(C)NC(=O)c2oc3c(F)cccc3c2C)n1 (configuration not stated) 51.3%
Cc1ccc(CN=c2c([N+](=O)[O-])nn(-c3ccc4c(c3)OCCO4)n2O)cc1 51.2%

Next part.

activation, inactive:
Cc1nn(CCc2nn[nH]n2)c2nc(-c3ccc(C4CCCCC4)cc3)cc(C(F)(F)F)c12 17.6%
CCOc1ccc(NC(=O)CSc2nc(=O)n(CCN3CCOCC3)c3c2CCCC3)cc1 1.49%
COc1ccc(Cl)cc1Nc1nc2ccc(C)cc2n2cnnc12 1.77%
Cc1ccc(-c2nnn(CC(=O)N(CC3CCCO3)C(C(=O)NC3CCCCC3)c3ccc(F)cc3)n2)o1 (configuration not stated) -1.46%
Cc1cc(O)c(-c2cc(C(=O)Nc3ccc(S(=O)(=O)N4CCOCC4)cc3)[nH]n2)cc1C -3.38%
COC(=O)c1cc(NS(=O)(=O)c2ccc(N3CCOCC3)c(N)c2)cc(C(=O)OC)c1 5.15%
O=C(CNC(=O)c1cccs1)OCC(=O)c1ccccc1 -10.9%
COc1ccc(/C=C/C(O)=C2/C(=O)NC3(C)CC2c2ccccc2O3)c(OC)c1OC (configuration not stated) -7.66%
N/C(=N\OC(=O)c1ccc2c(c1)OCO2)c1cccc(Br)c1 26%
CCOC(=O)c1cc2[nH]c3ccccc3c2[n+](-c2ccc([N+](=O)[O-])cc2)c1C 31%
Cc1cc(SCC(=O)c2ccc3c(c2)OCO3)nc2ccccc12 2.99%
O=C(Nc1ccc(OC(F)F)c(Cl)c1)C(c1ccccc1)c1ccccc1 1.01%
CCOc1ccc(/C=C/C(=O)N(CC)CC(=O)Nc2ccc3c(c2)OCCO3)cc1OCC -5.44%
Cc1cc(N2CCC(C(=O)N3CCN(c4cccc(C)c4C)CC3)CC2)n2ncnc2n1 -8.55%
CC(/C=N/NC(=O)c1cccnc1)=C\c1ccccc1 38.8%
CC(=O)C1=C(O)C(=O)N(c2ccc(O)cc2)C1c1ccc([N+](=O)[O-])cc1 (configuration not stated) 8.56%
N#Cc1cc2c(nc1SCC(=O)N1CCOCC1)CCCCC2 -75.2%
COc1ccc(N2C(=O)CC(N(CCc3ccccc3)C(=O)/C=C/C(=O)O)C2=O)cc1 (configuration not stated) -7.76%
CN(C(=O)CSc1cc(C(=O)c2nccn2C)c2ccccc2n1)c1ccccc1 20.5%
Cc1ccc(C(C)NC(=S)NCc2ccc(F)cc2)c(C)c1 (configuration not stated) 8.51%

From PubChem BioAssay AID504408 (Broad Institute, 2011)
